{
  "sequences": {"note": "By UniProt entry, the sequences of proteins in these tests, tags left out. Where a name states a change or a piece, a line headed by the entry shows the natural chain unless it says otherwise.", "UniProt Q9D0L8": "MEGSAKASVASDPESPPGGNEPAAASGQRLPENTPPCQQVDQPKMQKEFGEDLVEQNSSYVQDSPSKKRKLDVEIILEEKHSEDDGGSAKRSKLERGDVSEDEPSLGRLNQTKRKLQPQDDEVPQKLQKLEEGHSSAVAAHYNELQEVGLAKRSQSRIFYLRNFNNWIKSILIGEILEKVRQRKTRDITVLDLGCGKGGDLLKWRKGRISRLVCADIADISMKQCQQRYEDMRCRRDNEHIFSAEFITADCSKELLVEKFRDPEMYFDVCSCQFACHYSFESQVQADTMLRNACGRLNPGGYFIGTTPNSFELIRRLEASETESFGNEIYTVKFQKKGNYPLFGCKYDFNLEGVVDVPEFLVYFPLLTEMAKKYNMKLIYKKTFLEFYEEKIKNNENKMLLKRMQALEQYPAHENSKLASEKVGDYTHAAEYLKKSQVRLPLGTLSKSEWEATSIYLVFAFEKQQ", "UniProt O43148": "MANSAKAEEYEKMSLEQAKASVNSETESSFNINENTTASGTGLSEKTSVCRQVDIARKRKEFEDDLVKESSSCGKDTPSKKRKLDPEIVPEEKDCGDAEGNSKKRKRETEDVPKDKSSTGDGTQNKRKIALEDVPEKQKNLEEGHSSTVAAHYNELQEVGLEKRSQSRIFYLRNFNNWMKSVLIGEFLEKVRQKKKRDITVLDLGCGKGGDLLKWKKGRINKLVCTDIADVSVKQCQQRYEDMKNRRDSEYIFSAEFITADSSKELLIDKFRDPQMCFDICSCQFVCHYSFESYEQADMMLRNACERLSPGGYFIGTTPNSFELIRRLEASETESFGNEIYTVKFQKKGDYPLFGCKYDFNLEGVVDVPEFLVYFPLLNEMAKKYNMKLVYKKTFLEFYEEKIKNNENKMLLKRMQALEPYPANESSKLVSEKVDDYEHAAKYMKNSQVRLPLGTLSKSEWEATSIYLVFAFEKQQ", "UniProt Q9UQM7": "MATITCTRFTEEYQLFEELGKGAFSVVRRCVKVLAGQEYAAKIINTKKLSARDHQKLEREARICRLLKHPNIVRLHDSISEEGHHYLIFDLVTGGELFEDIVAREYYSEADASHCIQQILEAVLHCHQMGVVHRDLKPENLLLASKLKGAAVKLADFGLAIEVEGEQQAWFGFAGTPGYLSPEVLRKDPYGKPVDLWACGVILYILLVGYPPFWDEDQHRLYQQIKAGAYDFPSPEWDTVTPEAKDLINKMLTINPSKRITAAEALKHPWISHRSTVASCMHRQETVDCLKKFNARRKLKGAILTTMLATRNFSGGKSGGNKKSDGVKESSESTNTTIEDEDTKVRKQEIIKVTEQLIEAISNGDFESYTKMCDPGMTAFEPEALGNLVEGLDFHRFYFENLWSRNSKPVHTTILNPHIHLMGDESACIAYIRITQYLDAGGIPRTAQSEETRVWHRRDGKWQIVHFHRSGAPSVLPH", "UniProt P28652": "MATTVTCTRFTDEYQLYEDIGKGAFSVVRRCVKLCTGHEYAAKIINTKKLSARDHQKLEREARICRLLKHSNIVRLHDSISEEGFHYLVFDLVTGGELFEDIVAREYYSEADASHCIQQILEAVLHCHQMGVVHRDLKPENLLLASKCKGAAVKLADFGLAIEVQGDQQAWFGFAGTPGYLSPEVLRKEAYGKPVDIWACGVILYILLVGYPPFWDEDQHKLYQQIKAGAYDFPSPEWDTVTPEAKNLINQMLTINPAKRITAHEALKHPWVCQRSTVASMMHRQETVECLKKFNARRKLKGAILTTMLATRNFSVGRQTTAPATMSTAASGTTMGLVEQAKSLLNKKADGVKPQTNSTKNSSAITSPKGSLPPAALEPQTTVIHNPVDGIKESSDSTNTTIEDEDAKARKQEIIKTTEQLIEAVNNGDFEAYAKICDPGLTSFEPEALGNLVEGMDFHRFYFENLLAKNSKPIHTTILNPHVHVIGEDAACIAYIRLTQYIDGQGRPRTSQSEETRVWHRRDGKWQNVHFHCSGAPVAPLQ", "UniProt Q9CQY2": "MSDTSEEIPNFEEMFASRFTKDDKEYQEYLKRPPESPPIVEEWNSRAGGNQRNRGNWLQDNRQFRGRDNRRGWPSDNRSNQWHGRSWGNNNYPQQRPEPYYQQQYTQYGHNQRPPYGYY"},
  "source": "paper doi:10.1101/2025.10.30.685591",
  "assay_in_all_cases": "co-IP",
  "key": {"[1]": {"target": "RNA cap guanine-7 methyltransferase, RNMT (endogenous, mouse) (mouse (endogenous in brain and primary neurons)) (UniProt Q9D0L8)"}, "[2]": {"target": "RNA cap guanine-7 methyltransferase, RNMT (endogenous, mouse) (mouse (endogenous in brain and primary neurons)) (UniProt Q9D0L8)", "remark": "listed apart in the source"}, "HA-RNMT (full length)": {"target": "HA-RNMT (full length) (UniProt O43148)"}, "[3]": {"target": "HA-RNMT catalytic domain (HA-RNMTcat, 121-476) (UniProt O43148)"}, "GFP-CaMKIIα": {"target": "GFP-CaMKIIα (UniProt Q9UQM7)"}},
  "note": "Like-named read-outs stand apart in the source and are kept apart here. Results are given in words; binding and its absence hold for the method and conditions named. In cells and extracts the contact can be indirect. Some results given as binding are weak or reduced against the parent protein; the word gives no strength.",
  "data": [
    {"substance": "Ca2+/calmodulin-dependent protein kinase II beta, CaMKIIβ (endogenous, mouse) (from UniProt P28652 1-542) (enzyme)", "values": [
      {"measurement": "binding", "setting": "[1]", "result": "binds"},
      {"measurement": "binding", "setting": "[2]", "result": "binds"}
    ]},
    {"substance": "GFP-CaMKIIα (from UniProt Q9UQM7 1-478) (enzyme)", "values": [
      {"measurement": "binding", "setting": "HA-RNMT (full length)", "result": "binds"},
      {"measurement": "binding", "setting": "[3]", "result": "binds"}
    ]},
    {"substance": "HA-RNMT (full length) (from UniProt O43148 1-476) (enzyme)", "values": [
      {"measurement": "binding", "setting": "GFP-CaMKIIα", "result": "binds"}
    ]},
    {"substance": "HA-RNMT N terminal regulatory region (HA-RNMT-N, 1-120) (from UniProt O43148 1-120) (domain or fragment)", "values": [
      {"measurement": "binding", "setting": "GFP-CaMKIIα", "result": "no binding"}
    ]},
    {"substance": "HA-RNMT catalytic domain (HA-RNMTcat, 121-476) (from UniProt O43148 121-476) (domain or fragment)", "values": [
      {"measurement": "binding", "setting": "GFP-CaMKIIα", "result": "binds"}
    ]},
    {"substance": "RAM, RNMT activating subunit (endogenous, mouse) (from UniProt Q9CQY2 1-119)", "values": [
      {"measurement": "binding", "setting": "[2]", "result": "binds"}
    ]}
  ]
}
